No constants are given. Whether binding was seen depends on the method and setting. Binding seen in cells or lysates may run through a third protein. Some results given as binding are weak or reduced against the parent protein; the word gives no strength. Sequences can lack the tags named with a protein.
Key:
[1] = molecular target: FLAG-FIS1 (UniProt Q9Y3D6); test: co-IP; COS-7 cells co-expressing HA-PEX19 and FLAG-tagged TA proteins; cells treated with 1 mM DSP before lysis; FLAG-antibody-coupled agarose beads, eluted with 50 mM NaOH; immunoblot
[2] = molecular target: GFP-FALDH-PO (not stated (human genes cloned from HepG2 RNA)) (UniProt P51648); test: co-IP; COS-7 cells co-expressing HA-PEX19 and GFP fusions; cells treated with 1 mM DSP and quenched before lysis (0.5% Triton X-100, 150 mM NaCl); GFP-Trap beads, 2 h at 4°C; immunoblot
[3] = molecular target: T1, GFP-ACBD5 (not stated (human genes cloned from HepG2 RNA)) (UniProt Q5T8D3); test: as above
T1 sequence: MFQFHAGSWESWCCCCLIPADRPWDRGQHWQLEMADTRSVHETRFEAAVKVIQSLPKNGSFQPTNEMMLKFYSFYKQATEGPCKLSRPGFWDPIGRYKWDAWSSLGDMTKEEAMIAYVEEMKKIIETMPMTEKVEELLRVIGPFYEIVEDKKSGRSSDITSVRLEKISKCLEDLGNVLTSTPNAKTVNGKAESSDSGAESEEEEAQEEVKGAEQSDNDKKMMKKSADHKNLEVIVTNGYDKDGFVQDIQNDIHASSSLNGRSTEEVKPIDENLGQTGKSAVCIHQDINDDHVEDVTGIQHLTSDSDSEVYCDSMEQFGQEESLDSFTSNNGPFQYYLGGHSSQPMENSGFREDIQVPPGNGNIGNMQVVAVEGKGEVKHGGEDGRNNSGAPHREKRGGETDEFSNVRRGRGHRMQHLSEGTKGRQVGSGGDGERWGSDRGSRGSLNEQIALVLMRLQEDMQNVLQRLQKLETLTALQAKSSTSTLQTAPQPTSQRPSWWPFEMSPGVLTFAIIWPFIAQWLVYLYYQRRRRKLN

Sequences of proteins named here, by UniProt entry; tags and fusion partners are left off. A change or cut given only in a name is not applied to a line headed by its entry. A line that says so, or that is headed by a name, gives the form on record, which may keep a tag or linker.
UniProt Q9Y3D6: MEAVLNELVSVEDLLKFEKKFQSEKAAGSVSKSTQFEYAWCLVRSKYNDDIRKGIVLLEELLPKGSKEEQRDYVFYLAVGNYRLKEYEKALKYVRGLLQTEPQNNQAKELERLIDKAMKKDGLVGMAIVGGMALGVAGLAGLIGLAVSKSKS
UniProt P51648: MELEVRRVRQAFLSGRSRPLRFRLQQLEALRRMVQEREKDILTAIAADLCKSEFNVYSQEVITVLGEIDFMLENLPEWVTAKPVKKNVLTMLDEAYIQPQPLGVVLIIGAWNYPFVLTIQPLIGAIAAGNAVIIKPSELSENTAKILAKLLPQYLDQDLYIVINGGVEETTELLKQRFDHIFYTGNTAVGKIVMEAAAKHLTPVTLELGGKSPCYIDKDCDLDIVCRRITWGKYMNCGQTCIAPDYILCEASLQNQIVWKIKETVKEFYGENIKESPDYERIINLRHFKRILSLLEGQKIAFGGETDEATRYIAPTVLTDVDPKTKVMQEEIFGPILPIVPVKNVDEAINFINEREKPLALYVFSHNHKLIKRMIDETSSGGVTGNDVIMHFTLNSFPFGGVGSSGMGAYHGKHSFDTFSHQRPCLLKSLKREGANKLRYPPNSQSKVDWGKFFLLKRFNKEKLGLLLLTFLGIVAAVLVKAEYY
GFP-FALDH-PO (not stated (human genes cloned from HepG2 RNA)) (P51648, form named): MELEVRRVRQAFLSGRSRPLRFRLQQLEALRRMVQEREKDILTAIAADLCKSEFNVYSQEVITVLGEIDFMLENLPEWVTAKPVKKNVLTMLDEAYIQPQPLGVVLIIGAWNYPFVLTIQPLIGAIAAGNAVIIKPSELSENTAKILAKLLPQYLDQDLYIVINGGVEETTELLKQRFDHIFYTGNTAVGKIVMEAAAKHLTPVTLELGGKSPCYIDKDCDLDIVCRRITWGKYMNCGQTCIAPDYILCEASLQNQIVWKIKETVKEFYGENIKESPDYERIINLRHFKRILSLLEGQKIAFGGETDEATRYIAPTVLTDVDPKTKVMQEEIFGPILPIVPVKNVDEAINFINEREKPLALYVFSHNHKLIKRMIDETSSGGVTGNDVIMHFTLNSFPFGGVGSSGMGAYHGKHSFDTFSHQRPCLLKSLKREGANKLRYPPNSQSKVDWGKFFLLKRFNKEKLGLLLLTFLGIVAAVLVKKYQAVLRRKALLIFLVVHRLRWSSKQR

[4] = molecular target: GFP-FALDH-ER (not stated (human genes cloned from HepG2 RNA)) (UniProt P51648); test: as above

B1: HA-PEX19 (protein, UniProt P40855 1-299)
chain: MAAAEEGCSVGAEADRELEELLESALDDFDKAKPSPAPPSTTTAPDASGPQKRSPGDTAKDALFASQEKFFQELFDSELASQATAEFEKAMKELAEEEPHLVEQFQKLSEAAGRVGSDMTSQQEFTSCLKETLSGLAKNATDLQNSSMSEEELTKAMEGLGMDEGDGEGNILPIMQSIMQNLLSKDVLYPSLKEITEKYPEWLQSHRESLPPEQFEKYQEQHSVMCKICEQFEAETPTDSETTQKARFEMVLDLMQQLQDLGHPPKELAGEMPPGLNFDLDALNLSGPPGASGEQCLIM
[1]
  binding: binds
[2]
  binding: binds
[3]
  binding: binds
[4]
  binding: no binding

Reference: article PMC5450235
